Results reported in the supplement of paper PMC12067093, “Discovery and optimisation of a covalent ligand for TRIM25 and its application to targeted protein ubiquitination” (Chemical Science, 2025).
Some of the results follow.

The chains behind the UniProt entries cited, without tags or fusion partners. Where a name states a change or a piece, a line headed by the entry shows the natural chain unless it says otherwise.
UniProt Q7Z2T5: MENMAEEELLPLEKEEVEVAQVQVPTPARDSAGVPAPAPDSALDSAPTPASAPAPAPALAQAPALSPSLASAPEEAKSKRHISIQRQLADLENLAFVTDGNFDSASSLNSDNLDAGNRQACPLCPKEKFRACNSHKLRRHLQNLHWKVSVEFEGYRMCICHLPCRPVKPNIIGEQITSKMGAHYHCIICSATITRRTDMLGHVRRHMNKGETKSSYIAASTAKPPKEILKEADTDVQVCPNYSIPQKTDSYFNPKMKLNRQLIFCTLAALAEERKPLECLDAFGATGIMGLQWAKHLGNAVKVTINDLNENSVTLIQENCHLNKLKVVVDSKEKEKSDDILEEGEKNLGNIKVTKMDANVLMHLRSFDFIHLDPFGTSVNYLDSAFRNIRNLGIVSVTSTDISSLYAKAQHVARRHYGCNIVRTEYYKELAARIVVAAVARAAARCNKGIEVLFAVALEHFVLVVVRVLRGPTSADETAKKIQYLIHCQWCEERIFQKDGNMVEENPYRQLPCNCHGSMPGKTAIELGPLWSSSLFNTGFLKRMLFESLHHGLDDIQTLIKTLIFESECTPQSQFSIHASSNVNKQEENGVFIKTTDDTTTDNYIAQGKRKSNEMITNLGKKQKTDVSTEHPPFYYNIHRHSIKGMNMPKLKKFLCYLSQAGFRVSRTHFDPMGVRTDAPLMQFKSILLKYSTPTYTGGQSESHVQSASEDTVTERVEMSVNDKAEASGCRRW
UniProt Q96Q05, whole entry, looked up: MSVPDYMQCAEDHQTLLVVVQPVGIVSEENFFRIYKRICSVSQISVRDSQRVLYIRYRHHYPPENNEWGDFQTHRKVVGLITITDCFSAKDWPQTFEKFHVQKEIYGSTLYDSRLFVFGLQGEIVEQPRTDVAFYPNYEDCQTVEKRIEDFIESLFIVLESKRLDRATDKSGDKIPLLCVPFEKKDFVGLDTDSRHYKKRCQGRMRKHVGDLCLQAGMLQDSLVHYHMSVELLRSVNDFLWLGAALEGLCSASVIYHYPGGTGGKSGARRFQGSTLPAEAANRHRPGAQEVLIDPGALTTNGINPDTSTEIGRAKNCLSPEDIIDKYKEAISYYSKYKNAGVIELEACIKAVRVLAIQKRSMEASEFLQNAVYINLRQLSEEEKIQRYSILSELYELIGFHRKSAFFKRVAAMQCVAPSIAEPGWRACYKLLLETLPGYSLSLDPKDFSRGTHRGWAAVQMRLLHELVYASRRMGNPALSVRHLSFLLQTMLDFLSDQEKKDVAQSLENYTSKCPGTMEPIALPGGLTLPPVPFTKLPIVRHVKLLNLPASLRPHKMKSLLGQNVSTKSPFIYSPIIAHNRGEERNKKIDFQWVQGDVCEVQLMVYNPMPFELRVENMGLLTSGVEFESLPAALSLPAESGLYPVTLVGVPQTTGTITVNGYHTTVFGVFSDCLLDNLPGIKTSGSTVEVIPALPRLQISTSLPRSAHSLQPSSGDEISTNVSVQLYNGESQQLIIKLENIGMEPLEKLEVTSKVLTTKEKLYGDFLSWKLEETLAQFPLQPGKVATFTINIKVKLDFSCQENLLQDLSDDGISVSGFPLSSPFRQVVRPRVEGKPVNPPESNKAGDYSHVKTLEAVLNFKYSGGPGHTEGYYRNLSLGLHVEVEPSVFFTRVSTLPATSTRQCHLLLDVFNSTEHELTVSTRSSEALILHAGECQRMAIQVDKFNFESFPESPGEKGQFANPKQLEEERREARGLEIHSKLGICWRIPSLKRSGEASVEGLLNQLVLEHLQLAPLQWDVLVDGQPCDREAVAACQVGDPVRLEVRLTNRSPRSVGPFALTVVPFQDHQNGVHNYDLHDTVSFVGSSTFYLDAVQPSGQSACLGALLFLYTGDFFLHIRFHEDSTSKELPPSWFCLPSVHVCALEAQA
UniProt Q9UPN9: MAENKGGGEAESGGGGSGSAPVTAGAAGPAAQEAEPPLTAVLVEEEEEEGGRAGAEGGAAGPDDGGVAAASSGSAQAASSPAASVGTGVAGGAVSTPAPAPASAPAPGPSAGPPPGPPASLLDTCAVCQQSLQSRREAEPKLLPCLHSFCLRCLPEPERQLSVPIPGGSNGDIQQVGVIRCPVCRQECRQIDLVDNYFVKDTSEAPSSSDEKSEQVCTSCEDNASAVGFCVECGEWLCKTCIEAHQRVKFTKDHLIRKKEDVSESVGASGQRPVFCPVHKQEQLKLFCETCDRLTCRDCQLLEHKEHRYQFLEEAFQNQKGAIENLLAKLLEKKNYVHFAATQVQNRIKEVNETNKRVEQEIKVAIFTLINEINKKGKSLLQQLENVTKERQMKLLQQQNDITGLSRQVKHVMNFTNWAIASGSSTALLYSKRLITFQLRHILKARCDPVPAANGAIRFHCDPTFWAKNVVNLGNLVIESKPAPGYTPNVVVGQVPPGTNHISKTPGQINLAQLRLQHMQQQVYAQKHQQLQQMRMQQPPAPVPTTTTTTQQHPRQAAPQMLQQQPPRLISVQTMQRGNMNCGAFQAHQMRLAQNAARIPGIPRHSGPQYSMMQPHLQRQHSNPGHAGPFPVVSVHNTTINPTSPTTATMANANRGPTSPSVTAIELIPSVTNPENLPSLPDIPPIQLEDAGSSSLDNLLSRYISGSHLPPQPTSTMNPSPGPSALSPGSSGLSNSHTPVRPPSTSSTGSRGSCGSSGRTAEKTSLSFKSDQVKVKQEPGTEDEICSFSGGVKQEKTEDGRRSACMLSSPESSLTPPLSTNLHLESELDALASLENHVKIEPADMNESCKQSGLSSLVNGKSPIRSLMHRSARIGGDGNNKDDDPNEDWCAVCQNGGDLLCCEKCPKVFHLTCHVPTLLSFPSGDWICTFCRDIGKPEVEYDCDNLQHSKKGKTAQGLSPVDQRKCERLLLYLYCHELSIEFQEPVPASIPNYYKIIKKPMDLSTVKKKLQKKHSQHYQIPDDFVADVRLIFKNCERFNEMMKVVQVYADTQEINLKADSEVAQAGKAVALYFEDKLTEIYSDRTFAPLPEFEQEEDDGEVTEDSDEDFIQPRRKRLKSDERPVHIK
UniProt Q9Y2L5: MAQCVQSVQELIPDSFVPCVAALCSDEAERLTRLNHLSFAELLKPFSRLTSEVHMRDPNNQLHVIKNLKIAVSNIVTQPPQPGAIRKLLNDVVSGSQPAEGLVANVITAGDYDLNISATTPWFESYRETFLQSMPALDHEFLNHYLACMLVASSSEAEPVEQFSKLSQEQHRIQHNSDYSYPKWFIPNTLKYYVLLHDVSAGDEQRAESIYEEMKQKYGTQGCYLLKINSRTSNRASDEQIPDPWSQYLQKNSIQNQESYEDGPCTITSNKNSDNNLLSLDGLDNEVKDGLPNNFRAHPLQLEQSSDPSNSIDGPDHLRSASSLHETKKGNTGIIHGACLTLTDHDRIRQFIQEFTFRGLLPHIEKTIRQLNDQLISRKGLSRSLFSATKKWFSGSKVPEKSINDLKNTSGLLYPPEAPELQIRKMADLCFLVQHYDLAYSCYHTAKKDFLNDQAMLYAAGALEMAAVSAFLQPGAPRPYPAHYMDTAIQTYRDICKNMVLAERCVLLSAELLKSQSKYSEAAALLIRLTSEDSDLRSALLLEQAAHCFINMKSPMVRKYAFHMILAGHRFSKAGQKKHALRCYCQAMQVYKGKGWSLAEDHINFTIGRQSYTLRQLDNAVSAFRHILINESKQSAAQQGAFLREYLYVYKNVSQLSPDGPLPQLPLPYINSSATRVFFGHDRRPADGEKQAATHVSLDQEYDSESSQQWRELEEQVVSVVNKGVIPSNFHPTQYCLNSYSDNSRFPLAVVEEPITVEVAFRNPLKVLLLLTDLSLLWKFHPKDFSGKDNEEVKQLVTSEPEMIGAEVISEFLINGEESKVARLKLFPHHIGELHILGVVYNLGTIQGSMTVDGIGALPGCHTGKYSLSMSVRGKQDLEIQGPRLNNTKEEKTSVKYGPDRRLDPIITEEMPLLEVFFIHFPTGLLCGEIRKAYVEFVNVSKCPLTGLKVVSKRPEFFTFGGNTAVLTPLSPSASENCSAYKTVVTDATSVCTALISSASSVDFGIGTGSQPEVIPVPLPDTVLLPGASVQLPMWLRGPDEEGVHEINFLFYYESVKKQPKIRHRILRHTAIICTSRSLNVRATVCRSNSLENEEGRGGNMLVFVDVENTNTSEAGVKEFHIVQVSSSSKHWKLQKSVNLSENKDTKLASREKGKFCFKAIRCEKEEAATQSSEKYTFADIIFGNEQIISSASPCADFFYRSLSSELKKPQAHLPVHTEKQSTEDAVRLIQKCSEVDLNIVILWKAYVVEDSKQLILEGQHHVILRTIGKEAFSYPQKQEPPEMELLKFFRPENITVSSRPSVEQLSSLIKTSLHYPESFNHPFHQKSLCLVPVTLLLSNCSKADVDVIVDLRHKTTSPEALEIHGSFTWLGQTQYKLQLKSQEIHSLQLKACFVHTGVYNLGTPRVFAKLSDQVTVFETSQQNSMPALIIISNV
UniProt Q15654: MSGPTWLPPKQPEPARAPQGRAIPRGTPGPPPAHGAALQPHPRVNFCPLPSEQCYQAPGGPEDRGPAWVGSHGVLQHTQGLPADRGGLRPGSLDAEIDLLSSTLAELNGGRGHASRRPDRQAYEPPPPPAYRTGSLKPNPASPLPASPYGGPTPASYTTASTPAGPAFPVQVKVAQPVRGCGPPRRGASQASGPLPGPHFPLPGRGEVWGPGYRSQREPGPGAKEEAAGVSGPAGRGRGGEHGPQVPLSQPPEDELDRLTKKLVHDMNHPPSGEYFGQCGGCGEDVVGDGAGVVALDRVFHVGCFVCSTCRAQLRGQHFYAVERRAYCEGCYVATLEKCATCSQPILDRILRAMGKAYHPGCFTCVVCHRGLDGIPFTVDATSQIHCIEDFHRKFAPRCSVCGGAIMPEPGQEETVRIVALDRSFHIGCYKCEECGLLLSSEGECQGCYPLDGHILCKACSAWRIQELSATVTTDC
UniProt P29144: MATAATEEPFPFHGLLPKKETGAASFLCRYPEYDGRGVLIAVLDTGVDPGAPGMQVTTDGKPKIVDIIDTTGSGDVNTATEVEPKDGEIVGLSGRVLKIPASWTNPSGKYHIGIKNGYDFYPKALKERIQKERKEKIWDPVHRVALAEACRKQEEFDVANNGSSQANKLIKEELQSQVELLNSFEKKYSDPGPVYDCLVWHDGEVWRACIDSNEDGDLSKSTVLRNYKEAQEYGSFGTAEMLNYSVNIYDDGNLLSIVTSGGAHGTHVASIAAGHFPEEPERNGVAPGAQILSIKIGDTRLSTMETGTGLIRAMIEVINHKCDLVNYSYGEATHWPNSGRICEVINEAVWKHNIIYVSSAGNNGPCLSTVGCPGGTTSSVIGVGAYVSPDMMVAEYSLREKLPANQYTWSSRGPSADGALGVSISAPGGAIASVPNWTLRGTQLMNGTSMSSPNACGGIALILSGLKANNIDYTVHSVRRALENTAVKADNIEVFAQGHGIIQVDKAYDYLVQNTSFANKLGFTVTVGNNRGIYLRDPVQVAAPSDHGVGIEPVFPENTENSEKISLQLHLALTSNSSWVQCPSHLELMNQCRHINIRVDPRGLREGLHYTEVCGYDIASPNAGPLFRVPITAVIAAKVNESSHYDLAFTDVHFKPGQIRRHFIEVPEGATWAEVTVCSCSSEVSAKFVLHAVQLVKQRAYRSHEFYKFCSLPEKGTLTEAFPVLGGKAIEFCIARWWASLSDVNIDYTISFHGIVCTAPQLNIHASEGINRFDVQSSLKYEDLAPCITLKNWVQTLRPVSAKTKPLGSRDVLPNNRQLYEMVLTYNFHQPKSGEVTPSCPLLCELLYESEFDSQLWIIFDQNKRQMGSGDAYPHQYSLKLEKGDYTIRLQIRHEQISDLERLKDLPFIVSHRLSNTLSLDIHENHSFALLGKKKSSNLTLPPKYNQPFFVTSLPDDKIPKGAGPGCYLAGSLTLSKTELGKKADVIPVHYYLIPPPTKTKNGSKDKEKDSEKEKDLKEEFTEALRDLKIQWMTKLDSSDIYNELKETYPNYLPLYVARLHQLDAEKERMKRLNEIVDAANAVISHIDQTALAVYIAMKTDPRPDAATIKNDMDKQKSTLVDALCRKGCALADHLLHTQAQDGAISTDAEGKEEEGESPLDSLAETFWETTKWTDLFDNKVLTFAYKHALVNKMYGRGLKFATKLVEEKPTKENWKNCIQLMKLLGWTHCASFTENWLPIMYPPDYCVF
UniProt O60858: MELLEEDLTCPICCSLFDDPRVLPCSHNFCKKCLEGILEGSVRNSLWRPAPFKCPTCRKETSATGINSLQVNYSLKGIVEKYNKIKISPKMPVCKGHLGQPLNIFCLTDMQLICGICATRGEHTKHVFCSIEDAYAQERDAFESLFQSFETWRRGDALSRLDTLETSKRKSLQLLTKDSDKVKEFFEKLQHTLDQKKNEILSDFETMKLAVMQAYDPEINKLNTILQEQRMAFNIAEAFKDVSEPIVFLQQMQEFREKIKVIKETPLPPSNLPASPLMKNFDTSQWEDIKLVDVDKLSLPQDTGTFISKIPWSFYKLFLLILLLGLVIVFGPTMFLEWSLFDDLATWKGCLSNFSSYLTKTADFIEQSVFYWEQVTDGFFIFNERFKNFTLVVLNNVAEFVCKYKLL

Compound: Cc1cc(ccc1-c1ccccc1)C(=O)N1CCCN(CC1)C(=O)CCl [compound 10]
Experiment: probe-labelled cysteine peptide fold change vs DMSO (competition) (log2 fold change); higher = less target engagement (more negative = stronger competition)
Conditions: THP-1, incubation time: 4 h
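Further: competitive profiling in live THP-1 cells: cysteine peptides tagged with an iodoacetamide desthiobiotin (IA-DTB) probe, intensity after compound treatment relative to DMSO-treated cells.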

TRMT10C_Q7L0Y3_123_TLMECVSNTAK (UniProt Q7L0Y3)
probe-labelled cysteine peptide fold change (10 µM): 0.0352 | probe-labelled cysteine peptide fold change (50 µM): -0.00903

TRIM21_P19474_54_GGGSVCPVCR (UniProt P19474)
probe-labelled cysteine peptide fold change (10 µM): 0.0541 | probe-labelled cysteine peptide fold change (50 µM): -0.278

TRIM25_Q14258_524_NNFCGVGICYGSMNR (UniProt Q14258)
probe-labelled cysteine peptide fold change (10 µM): -0.287 | probe-labelled cysteine peptide fold change (50 µM): -0.323

TRAF3_Q13114_141_NDCHFEELPCVRPDCK (UniProt Q13114)
probe-labelled cysteine peptide fold change (10 µM): -0.255 | probe-labelled cysteine peptide fold change (50 µM): -0.368

TRAFD1_O14545_83_KHEETECPLR (UniProt O14545)
probe-labelled cysteine peptide fold change (10 µM): 0.0302 | probe-labelled cysteine peptide fold change (50 µM): -0.16

TRMT1L_Q7Z2T5_186+189_MGAHYHCIICSATITR (UniProt Q7Z2T5)
probe-labelled cysteine peptide fold change (10 µM): 0.173 | probe-labelled cysteine peptide fold change (50 µM): -0.0889

TRAPPC9_Q96Q05_179_IPLLCVPFEK (UniProt Q96Q05)
probe-labelled cysteine peptide fold change (10 µM): -0.447 | probe-labelled cysteine peptide fold change (50 µM): 0.54

TRERF1_Q96PN7_514_LTCSICLK (UniProt Q96PN7)
probe-labelled cysteine peptide fold change (10 µM): -0.161 | probe-labelled cysteine peptide fold change (50 µM): -0.076

TPRN_Q4KMQ1_536_EAEEEEASCLLGPTLK (UniProt Q4KMQ1)
probe-labelled cysteine peptide fold change (10 µM): -0.022 | probe-labelled cysteine peptide fold change (50 µM): -0.0585

TRIM28_Q13263_717_VLLALFCHEPCR (UniProt Q13263)
probe-labelled cysteine peptide fold change (10 µM): 0.00318 | probe-labelled cysteine peptide fold change (50 µM): 0.0176

TRIM25_Q14258_179_LREFFCPEHSECICHICLVEHK (UniProt Q14258)
probe-labelled cysteine peptide fold change (10 µM): 0.0299 | probe-labelled cysteine peptide fold change (50 µM): 0.0604

TRIM33_Q9UPN9_276_KKEDVSESVGASGQRPVFCPVHK (UniProt Q9UPN9)
probe-labelled cysteine peptide fold change (10 µM): -0.0301 | probe-labelled cysteine peptide fold change (50 µM): -0.148

TRMT1L_Q7Z2T5_164_MCICHLPCRPVKPNIIGEQITSK (UniProt Q7Z2T5)
probe-labelled cysteine peptide fold change (10 µM): -0.326 | probe-labelled cysteine peptide fold change (50 µM): 0.212

TRAF2_Q12933_303_VAMTAEACSR (UniProt Q12933)
probe-labelled cysteine peptide fold change (10 µM): 0.0164 | probe-labelled cysteine peptide fold change (50 µM): 0.0612

TRIOBP_Q9H2D6_2271_GFIASQGMGNGCGR (UniProt Q9H2D6)
probe-labelled cysteine peptide fold change (10 µM): -0.235 | probe-labelled cysteine peptide fold change (50 µM): -0.235

TRMT1L_Q7Z2T5_656_FLCYLSQAGFR (UniProt Q7Z2T5)
probe-labelled cysteine peptide fold change (10 µM): -0.686 | probe-labelled cysteine peptide fold change (50 µM): -0.286

TRAPPC8_Q9Y2L5_1330+1341_SLCLVPVTLLLSNCSK (UniProt Q9Y2L5)
probe-labelled cysteine peptide fold change (10 µM): -0.122 | probe-labelled cysteine peptide fold change (50 µM): 0.0691

TRAPPC9_Q96Q05_415_VAAMQCVAPSIAEPGWR (UniProt Q96Q05)
probe-labelled cysteine peptide fold change (10 µM): 0.026 | probe-labelled cysteine peptide fold change (50 µM): 0.227

TRIM33_Q9UPN9_276_EDVSESVGASGQRPVFCPVHK (UniProt Q9UPN9)
probe-labelled cysteine peptide fold change (10 µM): 0.0332 | probe-labelled cysteine peptide fold change (50 µM): 0.329

TRIM25_Q14258_122_TCLVCMASFCQEHLQPHFDSPAFQDHPLQPPVR (UniProt Q14258)
probe-labelled cysteine peptide fold change (10 µM): -0.131 | probe-labelled cysteine peptide fold change (50 µM): -0.275

TRAPPC8_Q9Y2L5_548_SALLLEQAAHCFINMK (UniProt Q9Y2L5)
probe-labelled cysteine peptide fold change (10 µM): -0.0996 | probe-labelled cysteine peptide fold change (50 µM): 0.223

TRERF1_Q96PN7_517_LTCSICLK (UniProt Q96PN7)
probe-labelled cysteine peptide fold change (10 µM): 0.0707 | probe-labelled cysteine peptide fold change (50 µM): 0.00825

TRIP6_Q15654_339+342_CATCSQPILDR (UniProt Q15654)
probe-labelled cysteine peptide fold change (10 µM): 0.045 | probe-labelled cysteine peptide fold change (50 µM): -0.28

TPP2_P29144_197_YSDPGPVYDCLVWHDGEVWR (UniProt P29144)
probe-labelled cysteine peptide fold change (10 µM): 0.0898 | probe-labelled cysteine peptide fold change (50 µM): 0.493

TRMT1L_Q7Z2T5_419_RHYGCNIVR (UniProt Q7Z2T5)
probe-labelled cysteine peptide fold change (10 µM): 0.0193 | probe-labelled cysteine peptide fold change (50 µM): 0.0906

TRIAP1_O43715_37_GDSSGDPCTDLFK (UniProt O43715)
probe-labelled cysteine peptide fold change (10 µM): -0.518 | probe-labelled cysteine peptide fold change (50 µM): 0.192

TRMT1L_Q7Z2T5_186_MGAHYHCIICSATITR (UniProt Q7Z2T5)
probe-labelled cysteine peptide fold change (10 µM): 0.0705 | probe-labelled cysteine peptide fold change (50 µM): 0.31

TRIM13_O60858_106_GHLGQPLNIFCLTDMQLICGICATR (UniProt O60858)
probe-labelled cysteine peptide fold change (10 µM): 0.0739 | probe-labelled cysteine peptide fold change (50 µM): -0.215

TRIM36_Q9NQ86_160_AATAIMCDLCKPPPQESTK (UniProt Q9NQ86)
probe-labelled cysteine peptide fold change (10 µM): -0.431 | probe-labelled cysteine peptide fold change (50 µM): -0.979

TRAP1_Q12931_501_NIYYLCAPNR (UniProt Q12931)
probe-labelled cysteine peptide fold change (10 µM): -0.0461 | probe-labelled cysteine peptide fold change (50 µM): 0.108

TRMT11_Q7Z4G4_161_KPQHVFSVLEDYGLDPNCIPENPHNIYFGR (UniProt Q7Z4G4)
probe-labelled cysteine peptide fold change (10 µM): -0.0115 | probe-labelled cysteine peptide fold change (50 µM): -0.0241

TPP2_P29144_322_CDLVNYSYGEATHWPNSGR (UniProt P29144)
probe-labelled cysteine peptide fold change (10 µM): 0.253 | probe-labelled cysteine peptide fold change (50 µM): 0.357

TRIP6_Q15654_304+310_VFHVGCFVCSTCR (UniProt Q15654)
probe-labelled cysteine peptide fold change (10 µM): 0.322 | probe-labelled cysteine peptide fold change (50 µM): 0.079

TPP2_P29144_787_YEDLAPCITLK (UniProt P29144)
probe-labelled cysteine peptide fold change (10 µM): 0.158 | probe-labelled cysteine peptide fold change (50 µM): 0.205

TRIM11_Q96F44_330_FDPGPCVLGQER (UniProt Q96F44)
probe-labelled cysteine peptide fold change (10 µM): -0.365 | probe-labelled cysteine peptide fold change (50 µM): -0.206

TRIM4_Q9C037_109_LFCEDDQRPVCLVCR (UniProt Q9C037)
probe-labelled cysteine peptide fold change (10 µM): 0.00311 | probe-labelled cysteine peptide fold change (50 µM): -0.0281

TRIM25_Q14258_475_VALSECYTVASVAEMPQNYRPHPQR (UniProt Q14258)
probe-labelled cysteine peptide fold change (10 µM): -0.698 | probe-labelled cysteine peptide fold change (50 µM): -0.374

TRANK1_O15050_2361_THLCFIR (UniProt O15050)
probe-labelled cysteine peptide fold change (10 µM): -0.108 | probe-labelled cysteine peptide fold change (50 µM): 0.147

TRMT1_Q9NXH9_376_FSAACGPPVTPECEHCGQR (UniProt Q9NXH9)
probe-labelled cysteine peptide fold change (10 µM): 0.00575 | probe-labelled cysteine peptide fold change (50 µM): -0.131

TPP2_P29144_342_ICEVINEAVWK (UniProt P29144)
probe-labelled cysteine peptide fold change (10 µM): 0.122 | probe-labelled cysteine peptide fold change (50 µM): 0.141

TRIP4_Q15650_171+173_LAVLLPGRHPCDCLGQK (UniProt Q15650)
probe-labelled cysteine peptide fold change (10 µM): -0.173 | probe-labelled cysteine peptide fold change (50 µM): -0.178
